The numbers were not newly measured in paper PMC4501119, “Cholestenoic acid, an endogenous cholesterol metabolite, is a potent γ-secretase modulator” (Molecular Neurodegeneration, 2015), which cites them from elsewhere.

Like-named read-outs stand apart in the source and are kept apart here.

On the set-up of the series: method as in PMID 25271621. As to conditions: cited from earlier work.

In the case of `CC(CCC[C@@H](C)C(=O)O)[C@H]1CCC2C3CC=C4C[C@@H](O)CC[C@]4(C)C3CC[C@@]21C` (stereo partly drawn) [Cmpd 2a, 25(R)-cholestenoic acid], the “mouse brain CA level” value is on record as ~ 30 nM (before loss of Cyp7b1) and ~ 300 nM (loss of Cyp7b1).
